# Test results published in patent publication US9926354B2, “Amyloid precursor protein (APP) based Ã#-secretase inhibitor peptides, and methods of use” (UNIVERSITY OF SOUTH FLORIDA, priority 2014, dated 2018).
# At least one peptide structure holds a part that was inferred or is arguable (an end, a ring closure or a residue). No end group written: not given here.
# Legend:
# CHO/APPwt cells = assay: Aβ production in CHO/APPwt cells by ELISA (Example 1, 4 hours); assay type: cell-based, Chinese hamster
# Method: To examine the effects of various Swedish Tat fusion peptides on Aβ production, human wild-type amyloid precursor protein (APP) is overexpressed in Chinese hamster ovary cells (hereinafter referred to as CHO/APPwt cells), and the cells are treated with either PBS control (Phosphate buffered saline); Swedish peptide-1 (SwePep-1), […] (also referred herein as “APPsweBBP1”) (SEQ ID NO: 5); Swedish peptide-2 (SwePep-2) (also referred herein as “APPsweBBP”), […] (SEQ ID NO: 1); Swedish Tat fusion peptide-1 (SweTatPep-1), […] (also referred herein as “APPsweBBP/TTD1”) (SEQ ID NO: 6); or Swedish Tat fusion peptide-2 (SweTatPep-2) (also referred herein as “APPsweBBP/TTD2” and “TAT-APPsweBBP”), […] (SEQ ID NO: 3). APPsweBBP is a truncated fragment of APPswe spanning 12 amino acid residues (Glu665-Arg676). TAT, an 11-amino acid-residue protein-transduction domain derived from the HIV-1 transactivator of transcription protein, was conjugated at the C-terminus of APPsweBBP and biotin was conjugated at the N-terminus.
# Following treatment, Aβ production is determined utilizing ELISA and the results illustrated in FIG. 1A. SweTatPep-2, SwePep-2, SwePep-1 and SweTatPep-1 each reduce Aβ40,42 by 63-65%, 30-33%, 31-34% and 37-38%, respectively.
# 5XFAD mice [1] = assay: Radial arm water maze (RAWM) in 5XFAD mice; assay type: in vivo, mouse; settings: 100 nM/kg i.p. daily 8 weeks, vs TAT- and PBS-treated
# 5XFAD mice [2] = assay: APP amyloidogenic processing in brain homogenates of 5XFAD mice (ELISA, WB); assay type: in vivo, mouse
# [3] = system: CHO cells over-expressing human wild-type APP (CHO/APPwt); assay: Aβ and sAPPα production in cultured media of CHO/APPwt cells by ELISA (24 hours); assay type: cell-based, Chinese hamster
# Method: (§1) Cell Culture—Chinese hamster ovary (CHO) cells engineered to express wild-type human APP (CHO/APPwt cells) or Swedish mutant human APP (CHO/APPswe cells) were kindly provided by Dr. Stefanie Hahn and Dr. Sascha Weggen (University of Heinrich Heine, Dusseldorf, Germany). As described previously (Obregon et al., 2012), these cells were cultured in Dulbecco's modified Eagle's medium (DMEM) with 10% fetal bovine serum (FBS), 1 mM sodium pyruvate, and 100 units/mL of penicillin and streptomycin.
# To confirm the binding of APPsweBBP with BACE1, CHO/APPwt cells were plated in 8-well chambers (5×10^5/well), incubated with TAT-APPsweBBP-biotin or APPsweBBP-biotin at 20 μM for 30 minutes, fixed with 4% paraformaldehyde for 20 minutes, washed and permeabilized with 0.5% Triton X-100. Following application of blocking buffer, these cells were stained with mouse anti-BACE1 and rabbit anti-biotin antibodies overnight at 4° C. for immunocytochemistry analysis. […] The cultured media were collected for Aβ analysis by enzyme-linked immunosorbent assay (ELISA) and sAPPα analysis by ELISA and Western blot (WB). Cell lysates were also prepared for analysis of APP amyloidogenic processing by WB.
# (§2) ELISA—Mouse brains were homogenized in ice-cold lysis buffer for 30 seconds using a Minilys tissue homogenizer (Bertin Technologies, Montigny-le-Bretonneux, France) set at high speed, allowed to stand for 15 minutes at 4° C., and centrifuged at 15,000 rpm for 30 minutes. Soluble Aβ1-40/42 species and sAPPα were directly detected in cultured cell media or brain homogenates using the Aβ1-40/42 (Invitrogen) and sAPPα ELISA kits (IBL-America, Minneapolis, Minn., USA).
# (§3) To further examine the ability of the Swedish mutant APP BACE1 binding peptide/Tat fusion peptides to decrease Aβ production, CHO cells overexpressing either human wild-type APP (CHO/APPwt cells) or Swedish mutant APP (hereinafter referred to as “CHO/APPswe cells”) are treated with a variety of APP-based BACE1 inhibitor peptides, as shown in Table 1 and Table 2. Aβ production is determined using ELISA.
# 5XFAD mice [4] = assay: β-amyloid deposits in 5XFAD mouse brains (4G8 immunohistochemistry, image analysis); assay type: in vivo; settings: 8 weeks i.p. treatment
# Description: Percentage of 4G8 immunoreactive areas in regions of interest (RSC, EC and H regions) was quantified by image analysis for each treatment group (B). Data are represented as mean±SD (n=10, 5 female/5 male).
# 5XFAD Mice—Transgenic AD mice [5XFAD; B6SJL-Tg(APPSwF1Lon,PSEN1*M146L*L286V) 6799Vas/Mmjax] at 2.5 months of age were obtained from the Jackson Laboratory (Bar Harbor, Me., USA) and housed and maintained in the Animal Facility of College of Medicine at University of South Florida. The mice at 3.5 months of age were treated with TAT-APPsweBBP, TAT peptide (100 nM/kg in 100 μl PBS) or PBS (100 μl) intraperitioneally (i.p.) daily for eight consecutive weeks. The mice were subjected to behavioral testing after 8 week-treatment and euthanized for immunohistochemical, ELISA and WB analysis after completing behavioral tests. All experiments involving mice were in compliance with the U.S. Department of Health and Human Services Guide for the Care and Use of Laboratory Animals and in accordance with the guidelines of the USF Institutional Animal Care and Use Committee.
# Immunohistochemistry—Fixed cell cultures and brain sections were stained with indicated antibodies and then treated with donkey anti-mouse IgG conjugated with Alexa Fluor 488 (1:200) and goat anti-rabbit IgG conjugated with Alexa Fluor 594 (1:200; Invitrogen, Carlsbad, Calif., USA). […]
# 5XFAD mice [5] = assay: Rotarod test in 5XFAD mice; assay type: in vivo, mouse; settings: 5XFAD or WT mice, i.p. daily 8 weeks
# [6] = system: CHO cells over-expressing human Swedish mutant APP (CHO/APPswe); assay: Aβ and sAPPα production in cultured media of CHO/APPswe cells by ELISA; assay type: cell-based, Chinese hamster
# Method: as §1
# To confirm the binding of APPsweBBP with BACE1, CHO/APPwt cells were plated in 8-well chambers (5×10^5/well), incubated with TAT-APPsweBBP-biotin or APPsweBBP-biotin at 20 μM for 30 minutes, fixed with 4% paraformaldehyde for 20 minutes, washed and permeabilized with 0.5% Triton X-100. Following application of blocking buffer, these cells were stained with mouse anti-BACE1 and rabbit anti-biotin antibodies overnight at 4° C. for immunocytochemistry analysis. In order to determine the inhibitory effects of TAT-APPsweBBP on BACE1-mediated APP β-cleavage and subsequent Aβ production, both CHO/APPwt and CHO/APPswe cells were plated in 24 well-plates (3×10^5/well) and treated with TAT-APPsweBBP at 0-20 μM for 24 hours. The cultured media were collected for Aβ analysis by enzyme-linked immunosorbent assay (ELISA) and sAPPα analysis by ELISA and Western blot (WB). Cell lysates were also prepared for analysis of APP amyloidogenic processing by WB.
# as §2, §3
# [7] = 8 weeks of treatment, ELISA, vs TAT peptide or PBS
# [8] = CHO/APPwt, 20 μg/mL, cultured media, ELISA
# [9] = CHO/APPswe, 20 μg/mL, 24 hours, cultured media
# [10] = in both CHO/APPswe cells (Table 1) and CHO/APPwt cells (Table 2)
sequence,measurement,setting,value
YGRKKRRQRRREISEVNLDAEFR [APPsweBBP/TTD2],"reduction of Aβ40,42",CHO/APPwt cells; 20 μg/mL,63-65%
same,"inhibition of Aβ40,42 generation, dose dependence",CHO/APPwt cells; range of doses,"inhibits Aβ40,42 generation in a dose-dependent manner"
same,RAWM entry-arm errors,5XFAD mice [1],significantly fewer errors
same,reduction of detergent-soluble Aβ1-40 level in brain homogenates,5XFAD mice [2]; [7],41%
same,reduction of detergent-soluble Aβ1-42 level in brain homogenates,5XFAD mice [2]; [7],54%
same,levels of APP amyloidogenic processing products (β-CTF and Aβs) by WB,"5XFAD mice [2]; 8 weeks, vs TAT peptide and PBS",much lower levels
same,"amyloidogenic processing of APP (Aβ1-40/42, β-CTF, α-CTF, sAPPα; WB and ELISA)","[3]; CHO/APPwt or CHO/APPswe cells, 0-20 μM",potently opposed amyloidogenic processing of APP by BACE1 in a dose-dependent fashion
same,Secreted Aβ40 (ng/mg; mean ± SD),[3]; [8],2.43 ± 0.18 ng/mg
same,Secreted Aβ42 (ng/mg; mean ± SD),[3]; [8],0.41 ± 0.012 ng/mg
same,Secreted sAPPα (ng/mg; mean ± SD),[3]; [8],6865.73 ± 312.45 ng/mg
same,"percentage of 4G8 immunoreactive areas (β-amyloid plaques) in RSC, EC and H regions",5XFAD mice [4],greatly reduced
same,rotarod motor performance (latency to fall),5XFAD mice [5],did not improve motor performance
same,Secreted Aβ40 (ng/mg; mean ± SD),[6]; [9],22.12 ± 4.87 ng/mg
same,Secreted Aβ42 (ng/mg; mean ± SD),[6]; [9],4.15 ± 0.57 ng/mg
same,Secreted sAPPα (ng/mg; mean ± SD),[6]; [9],359.35 ± 21.23 ng/mg
same,increase of sAPPα,[6]; [10],30-40%
same,reduction of Aβ40,[6]; [10],60-70%
same,reduction of Aβ42,[6]; [10],50-60%
